Primary screen of a compound library

Measurements from “University of Dundee, Small-Polar-MMV Screening Library” (2021), ChEMBL document CHEMBL3988442.

The filed quantity is “Percent Effect” (%). The record does not define 0% and 100%; most values in the screen are far below 50% and negative numbers occur (in some assays of this library far below -100). Compounds were drawn at random from those tested, without regard to their results. A dash means the value is not listed here; it may have been measured.

A: 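Whole-cell assay for inhibitors of Mycobacterium tuberculosis growth, labelled Cornell in the record; the read-out is not stated. The concentration is filed as 10 mM, unlikely as a test dose, so the dose is not known. Higher means stronger inhibition (inferred from two other growth screens of the library). Size under these conditions: about 53,000 compounds, about 900 of them at 50% or above in at least one test.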
B: 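Assay on Mycobacterium tuberculosis, filed only as a heat shock assay from Cornell; the read-out is not stated. The concentration is filed as 10 mM, unlikely as a test dose, so the dose is not known. The record gives no direction; compounds that gave an IC50 in retests scored well above the rest, so higher reads as stronger inhibition. Of about 69,000 compounds tested this way, about 930 (1.4%) reached 50% or more in at least one test.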

SMILES | A | B
CN1CCCN(C(=O)c2ccnn2-c2ccc3ccccn23)CC1.O=C(O)C(F)(F)F | -11.59 | -45.73
O=C(Nc1cccnc1N1CCSCC1)c1ccc2c(c1)CCO2 | -18.45 | -7.302
Cc1n[nH]c(C2CN(CC(=O)NCCc3ccccc3)CCO2)n1 (stereo not drawn) | -6.114 | -12.22
O=C(CN1CCOC(c2ccc(Cl)c(Cl)c2)C1)NCc1ccco1 (stereo not drawn) | 4.15 | -12.64
C[C@@H]1CN(C(=O)c2cccc(F)c2)C[C@]12CCN(c1ccsc1)C2=O | 20.41 | 1.576
Cc1ccc(-c2cn[nH]c2C2CCCN(c3ccnc(C)n3)C2)cc1 (stereo not drawn) | -21.17 | 19.62
CC(C)(O)c1cc(CC2(NCc3ccccc3Cl)COC2)no1 | 18.28 | -7.21
CSCCC1c2nc[nH]c2CCN1Cc1ccccc1C(F)(F)F (stereo not drawn) | 2.921 | -11.51
Cn1ncc2c1C(COCC1CC1)N(C(=O)c1ccncn1)CC2.O=C(O)C(F)(F)F (stereo not drawn) | 6.673 | 0.1141
CCn1cc2c(n1)C(COCC1CC1)CN(C(=O)c1ccco1)C2 (stereo not drawn) | 28.73 | -3.054
Cc1cc2nc(CO[C@H]3CN(C)C[C@H]3F)[nH]c2cc1C | 27.46 | -39.29
CCc1nc(CN2CCN(C(=O)C3(C#N)CCCCC3)CC2)cs1 | - | -15.53
O=C(c1ccnn1COc1ccc(Cl)cc1)N1CCCC1 | 27.68 | 11.89
[H][C@@]12CS(=O)(=O)C[C@]1([H])N(C(=O)c1cn3ccsc3n1)CCN2C | - | 20.17
COCC1CC2(CCN(Cc3ccncc3)CC2)CN1C(C)C.O=C(O)C(F)(F)F.O=C(O)C(F)(F)F.O=C(O)C(F)(F)F (stereo not drawn) | 16.44 | -9.126
Fc1ccc(-c2nnc(CN3CCn4c(nnc4C4CC4)C3)o2)cc1 | - | -1.255
COc1cccc2c1OCCCN(Cc1ccc(C(N)=O)c(=O)[nH]1)C2 | 3.498 | -5.548
CN(Cc1cccnc1)C1CC2(CCN(C(=O)c3cnccn3)CC2)C1 | -24.62 | 2.576
CC1CN(C(=O)c2ccnc(OCCN(C)C)c2)c2ccccc21 (stereo not drawn) | 32.62 | -11.16
CCOc1cccc(CN(Cc2cnn(C)c2)CC(C)C)c1O | 6.096 | -4.749
O=C(NCc1cn2c(n1)CN(Cc1cccc(F)c1)CC2)C1CCC1.O=C(O)C(F)(F)F | 20.31 | -6.126
Cc1noc(C)c1CN(C)C(=O)NC1CCN(c2ncccn2)CC1 | -1.123 | 21.36
COc1ccc(S(=O)(=O)NCCCc2ccc(N(C)C)cc2)cc1F | 33.59 | 23.68
Cc1cccc(-c2nnc(C(C)N3CCn4c(C)nnc4C3)o2)c1 (stereo not drawn) | -20.02 | -5.873
CCN(CCN1CCOCC1)C(=O)c1cccnc1 | 12.2 | 8.758
Cc1cc(C)n(Cc2cccc(C(=O)N3CCOCC3(C)C)c2)n1 | -3.309 | 1.296
COc1cccc(C(=O)NC(c2ccccn2)[C@H]2CC[C@H](CN)CC2)c1 (stereo partly drawn) | - | 14.74
O=C(COc1ccccc1F)N1CCCCC1c1ccn2ccnc2n1 (stereo not drawn) | 16.43 | -6.284
COc1coc(CN2CCCC3(CCC(=O)N(C4CC4)C3)C2)cc1=O (stereo not drawn) | - | 4.441
O=C(CN1CCC(N2CCNC2=O)CC1)NCC(F)(F)F | 11.3 | 14.44
CCC(c1nc(C(C)C)nn1-c1ccncc1C)n1cccn1 (stereo not drawn) | 6.528 | -11.29
COc1ccccc1[C@@H]1CN(Cc2cnn(C)c2C)C[C@H]1C(=O)O | -7.067 | -27.63
CO[C@H]1CN(C(C)C)C[C@@H]1NC(=O)c1cc(COc2ccccc2)[nH]n1 | - | -3.135
O=C(NCC1CC1)c1cnc(-c2ccccc2)nc1 | - | 19.67
[H][C@@]12COC[C@]1([H])[C@@H](OC)CN2C(=O)c1ccc[nH]1 | - | -6.067
CCC(=O)Nc1nnc(CCOc2ccccc2)s1 | - | -7.533
O=c1oc2ccccc2n1CCCN1CCCC1c1ccc(O)cc1 (stereo not drawn) | -1.638 | -35.87
Cn1c(=O)oc2ccc(NC(=O)N3CCOCC3)cc21 | -15.27 | 34.66
CCCNC(=O)CNC(=O)CCc1ccccc1Br | 10.53 | 9.708
Cc1nc(CCCNC(=O)C2CC(=O)N(C3CCCC3)C2)sc1C (stereo not drawn) | 4.814 | -32.91
Cn1ncc2c(N3CCS(=O)(=O)CC3)nc(-c3cccnc3)nc21 | - | 11.34
CCn1ncnc1CN1CCC(CNC(=O)c2cccnc2O)C1 (stereo not drawn) | 24.95 | 10.3
Cc1nc(-c2c(-c3ccccc3)ncn2CCCN2CCOCC2)c[nH]1 | 16.44 | -40.46
CCc1cnc(NC2CCc3c(ccc(=O)n3C)C2)nc1 (stereo not drawn) | 6.947 | -11.52
Cc1noc(NC(=O)c2ccccc2)n1 | -1.268 | 75.22
Cc1ccc(-c2cc(C(=O)NC(C)C(=O)N3CCCCC3)on2)cc1 (stereo not drawn) | 17.57 | 10.15
CNC(=O)[C@@H](c1ccccc1OC)N1CCC[C@H]1C(=O)NC(C)(C)C.Cl | 10.52 | -4.502
CC1c2ncc(COc3cccnc3)n2CCN1Cc1ccco1 (stereo not drawn) | 18.8 | 10.95
O=C(O)[C@@H]1CN(Cc2ccc3nsnc3c2)C[C@H]1c1ccncc1 | 6.988 | -25.94
Cc1nc(CCNC(=O)C2CC(=O)N(C(C)(C)C)C2)sc1C (stereo not drawn) | 1.157 | 5.77
CCOc1ncccc1NC(=O)N1CCCC1c1cc(C)no1 (stereo not drawn) | 12.11 | 7.434
Cc1nn(C)cc1C(=O)N1CCC(CSc2ccccc2)C1 (stereo not drawn) | - | 8.606
CO[C@H]1COCCN(C(=O)c2cc(C)oc2C(F)(F)F)C1 | - | -0.4164
COC(=O)c1cccc(C(=O)N2CCN(c3cc(Cl)ccc3C)CC2)n1 | 30.61 | 12.79
COC(=O)c1ccc(C(=O)N2CCC(c3nnc(C)s3)CC2)cc1 | 29.74 | 0.6689
Cc1cc(C)c(C(=O)N2CCOC(CCN(C)C)C2)o1 (stereo not drawn) | - | 7.405
c1ccc2c(c1)nnn2CCCNC1CCOC2(CCOCC2)C1 (stereo not drawn) | -0.987 | -17.35
CC(c1ccncn1)N(C)Cc1cc(O)c2cc(F)ccc2n1 (stereo not drawn) | -4.913 | -18.33
Cc1nc2c(c(=O)n1C)CCN(C(=O)CCc1ccccc1O)CC2 | - | 3.657
CCn1ncc2c1CCCC2NCc1ccc(OC)cc1OC (stereo not drawn) | - | -14.18
Cc1ccc(C(=O)N(Cc2ccc(F)cc2F)C2CC2)c(=O)[nH]1 | -17.25 | 11.86
Cn1cnnc1CNC(=O)c1ccc(Br)cc1O | -13.08 | 1.153
O=C(c1ccoc1)N1CCCn2cnc(COCC3CC3)c2C1 | 7.498 | -1.28
Cn1c(CCC(=O)N2CCC3(CCCO3)CC2)nc2cccnc21 | -35.88 | -13.38
Cc1cc(C)n(CC2CN(Cc3noc(C4CC4)n3)CCO2)n1 (stereo not drawn) | - | -13.07
O=C(N1CCOCC1)N1CCc2[nH]nc(COc3cccc(Cl)c3)c2C1 | 8.772 | 4.613
COc1ccc(F)cc1C(=O)N1CCC2(CCC(=O)N(C(C)C)C2)CC1 | -14.06 | -3.354
O=C(Nc1cc(C(F)(F)F)c[nH]c1=O)N1CCSCC1 | - | -2.266
O=C(c1cccc(S(=O)(=O)NC[C@@H]2C[C@H](F)CN2)c1)N1CCCCC1 | - | 13.55
CC(=O)NCC(=O)N1CCN(CCN(C)C)c2ncccc2C1.O=C(O)C(F)(F)F.O=C(O)C(F)(F)F | 6.377 | 0.3864
COCCNC(=O)Nc1ccc(C(=O)N2CCSCC2)cc1C | -6.31 | 16.76
N#Cc1cccc(N2CCC3(CCC(=O)N(CCCO)C3)CC2)n1 | -9.7 | -5.298
CCC1CNCc2cc3c(C)ccc(C)c3nc2O1 (stereo not drawn) | 61.63 | 21.81
Cc1nc(CN(C)C2CCN(CC(=O)N3CCOCC3)C2)no1 (stereo not drawn) | 23.86 | 5.495
O=C1CN(CCS(=O)(=O)c2ccc(Cl)cc2)CCN1 | - | 5.761
O=C(NCC1CC1)c1cc(C2CC2)nc2onc(C3CCCNC3)c12 (stereo not drawn) | - | -22.6
CCn1cc(S(=O)(=O)NCC(OC)c2ccccc2)cn1 (stereo not drawn) | -27.9 | 12
Cc1ccc(-c2cnn(CC(=O)NC(C)C)c2)cc1 | -9.769 | -1.837